These are yes or no findings as the source states them, for the method shown. Binding seen in cells or lysates may run through a third protein. Some entries that bind do so weakly or less than the wild type.

Sequences of proteins named here, by UniProt entry; tags and fusion partners are left off. Residues count along the entry.
UniProt Q2GI62: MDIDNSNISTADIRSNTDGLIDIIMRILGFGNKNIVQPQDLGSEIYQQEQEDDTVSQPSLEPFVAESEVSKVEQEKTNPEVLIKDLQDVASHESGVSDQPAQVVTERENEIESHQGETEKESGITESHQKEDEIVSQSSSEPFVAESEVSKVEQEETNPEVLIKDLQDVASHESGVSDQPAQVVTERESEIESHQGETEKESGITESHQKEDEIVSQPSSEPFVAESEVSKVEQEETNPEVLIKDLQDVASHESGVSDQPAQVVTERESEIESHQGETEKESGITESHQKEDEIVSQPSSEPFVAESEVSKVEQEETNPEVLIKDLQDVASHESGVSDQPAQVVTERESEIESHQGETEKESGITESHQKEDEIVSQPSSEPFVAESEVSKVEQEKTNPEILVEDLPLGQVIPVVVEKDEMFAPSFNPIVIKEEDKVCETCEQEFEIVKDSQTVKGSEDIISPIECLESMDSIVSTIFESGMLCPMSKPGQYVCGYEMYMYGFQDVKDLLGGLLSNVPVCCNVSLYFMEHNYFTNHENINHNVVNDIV
UniProt Q9H461, residues 28-694: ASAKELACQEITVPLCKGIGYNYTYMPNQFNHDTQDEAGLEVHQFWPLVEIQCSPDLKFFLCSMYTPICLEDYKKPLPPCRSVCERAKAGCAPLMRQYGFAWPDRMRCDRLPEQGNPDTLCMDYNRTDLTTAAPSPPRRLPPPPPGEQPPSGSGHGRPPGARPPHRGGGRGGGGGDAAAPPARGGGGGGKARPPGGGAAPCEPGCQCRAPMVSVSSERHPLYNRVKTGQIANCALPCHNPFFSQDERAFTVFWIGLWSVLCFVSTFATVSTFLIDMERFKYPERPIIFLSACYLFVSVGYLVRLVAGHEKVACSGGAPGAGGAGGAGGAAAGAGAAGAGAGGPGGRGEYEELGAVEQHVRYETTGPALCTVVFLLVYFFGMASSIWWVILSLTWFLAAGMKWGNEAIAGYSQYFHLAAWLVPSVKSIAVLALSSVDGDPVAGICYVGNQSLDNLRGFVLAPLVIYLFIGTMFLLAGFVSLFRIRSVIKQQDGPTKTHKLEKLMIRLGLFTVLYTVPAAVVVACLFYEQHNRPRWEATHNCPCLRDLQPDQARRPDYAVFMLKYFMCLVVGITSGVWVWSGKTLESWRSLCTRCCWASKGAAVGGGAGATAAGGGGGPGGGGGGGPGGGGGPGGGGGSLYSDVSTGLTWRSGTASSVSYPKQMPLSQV
UniProt Q13467, residues 27-585: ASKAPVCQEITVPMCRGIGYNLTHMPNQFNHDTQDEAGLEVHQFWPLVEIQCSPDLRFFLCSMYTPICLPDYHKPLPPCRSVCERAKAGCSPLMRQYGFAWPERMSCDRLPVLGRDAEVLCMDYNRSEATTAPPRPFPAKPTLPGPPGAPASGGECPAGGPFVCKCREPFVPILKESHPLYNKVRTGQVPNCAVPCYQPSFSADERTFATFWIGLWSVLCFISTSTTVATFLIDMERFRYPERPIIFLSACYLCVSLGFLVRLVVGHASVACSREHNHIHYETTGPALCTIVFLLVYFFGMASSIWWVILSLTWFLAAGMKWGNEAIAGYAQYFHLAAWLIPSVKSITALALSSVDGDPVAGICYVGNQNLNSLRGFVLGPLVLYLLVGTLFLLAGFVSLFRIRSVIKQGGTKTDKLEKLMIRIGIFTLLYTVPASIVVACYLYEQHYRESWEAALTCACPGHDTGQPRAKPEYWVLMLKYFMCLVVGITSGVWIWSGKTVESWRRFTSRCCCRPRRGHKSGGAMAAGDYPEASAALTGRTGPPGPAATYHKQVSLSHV

In this test the target is TRP120 (from E. chaffeensis in infected THP-1 cells) (Ehrlichia chaffeensis) (UniProt Q2GI62). The experiment in a line: co-IP; lysate of E. chaffeensis-infected THP-1 cells 70 hpi; TRP120 precipitated with immobilised rabbit α-TRP120-I1 (Pierce co-IP kit); eluates blotted for Fzd5 and Fzd8.

In the case of “Fzd8 (endogenous, THP-1 cells) (from UniProt Q9H461 28-694) (receptor)”, the binding result is on record as “no binding”.

Take “Fzd5 (endogenous, THP-1 cells) (from UniProt Q13467 27-585) (receptor)”: the binding result is “binds”.

Values taken from PMC8546699, “Ehrlichia chaffeensis TRP120 Is a Wnt Ligand Mimetic That Interacts with Wnt Receptors and Contains a Novel Repetitive Short Linear Motif That Activates Wnt Signaling” (mSphere, 2021).
